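Viability assay of Plasmodium falciparum sporozoites; the read-out is not stated. The concentration is filed as 10 mM, unlikely as a test dose, so the dose is not known. The record gives no direction; compounds that gave an IC50 in retests scored well above the rest, so higher reads as lower viability. Strong results were mostly tested again. Of about 34,000 compounds tested this way, about 280 (0.84%) reached 50% or more in at least one test.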

Results are given as percent effect.
How 0% and 100% were set is not recorded. Most values in the screen are low, and negative values occur.
This is an unselected part of the compounds tested.
Two or more numbers in one place are separate tests of the same structure; such repeats can differ widely.

* CC(C)(O)CCc1cccc(C(=O)NCC2CN(S(C)(=O)=O)CCO2)c1 (stereo not shown) | -1.424%
* CCOCC(=O)N(Cc1ccco1)c1ccc(OC)c(F)c1 | -26.55%
* CCN(Cc1ccc2c(c1)OCO2)C(=O)c1ccc(C)[nH]c1=O | 9.068%
* [H][C@]12C[C@H](C(=O)NC)N(C)[C@@]1([H])CN(C(=O)c1ccc(C)nc1)C2 | 0.2555%
* [H][C@@]12CCNC[C@]1([H])N(C(=O)C1CCCCC1)C2 | 16.77%
* O=C(CSC1=NS(=O)(=O)c2cc(F)ccc2N1)c1ccc(Cl)cc1 | 14.41%
* CN(c1ccncn1)C1CC2(CCN(C(=O)Cc3cccs3)C2)C1 (stereo not shown) | -1.506%
* CCc1cc(N(C)Cc2ccno2)n2nc(C)c(C)c2n1 | -18.62%
* CC(C)(C)c1n[nH]c(C2CN(C(=O)CCc3cccs3)CCO2)n1 (stereo not shown) | 3.461%
* COCCN1C(=O)CCC12CCCN(Cc1nccs1)CC2.O=C(O)C(F)(F)F (stereo not shown) | 11.02%
* O=C(NCCN1CCCCCC1=O)c1ccc(=O)[nH]n1 | 7.39%
* O=C(C1CCN(c2nc3nc[nH]c(=O)c3s2)CC1)N1CCCCC1 | 3.022%
* O=C(O)C(F)(F)F.[H][C@@]12COC[C@]1([H])[C@@H](OCc1csc(C)n1)CN2C(=O)c1ccc[nH]1 | 11.33%
* CCOc1cc(C)nc(N2CCN(C(=O)c3cc(C)on3)CC2)n1 | 7.586%
* COc1ccccc1S(=O)(=O)Nc1ccc2c(C(=O)O)c[nH]c2c1 | 17.66%
* CCCc1cc(=O)[nH]c(-c2ccccc2CN(C)CCC(C)C)n1 | 3.589%
* CCc1nccc(CN2CCCC(CNC(=O)c3occc3C)C2)n1 (stereo not shown) | 0.614%
* Cc1nc(C)c(C(=O)N2CCCC2c2nc(O)cc(C(C)C)n2)s1 (stereo not shown) | -7.272%
* Cc1nc(CC(=O)N2CCCCC2c2ccn3ccnc3n2)cs1 (stereo not shown) | -15.28%
* Cc1cc(C(=O)N2CCCC(n3cncn3)C2)nn1C (stereo not shown) | 12.87%
* CC(Cn1cccn1)NCc1csc(-c2ncccn2)n1 (stereo not shown) | -8.5% and -17.59% and -16.08%
* Cc1cc2nc(SCC(=O)N3CCCCC3)n(C)c(=O)c2[nH]1 | 16.8%
* Cc1cnn(C2CN(Cc3ccc4c(c3)OCCO4)C2)c1 | -4.721%
* Cl.O=C(c1ccccc1Cl)N1CCN(CCc2ccccn2)CC1 | 5.722%
* O=C(NCC(=O)N1CCCC1)c1nn(-c2ccccc2F)cc1O | 11.11%
* COCc1cccc(CNCc2c(C)nn(C)c2N(C)C)c1 | 25.76%
* c1ccc2oc(CCCN3CCCCC3Cn3cncn3)nc2c1 (stereo not shown) | -5.219%
* Cc1ccc([C@@H]2CN(C(=O)c3cccnn3)C[C@H]2NC(=O)C2CC2)cc1 | 4.054%
* CCCC(=O)N1CCCC(c2ccccn2)C1 (stereo not shown) | -4.87%
* CNc1cc(CCNC(=O)c2cccnc2)nc(-c2ccncc2)n1 | -10.07%
* CC(=O)Nc1nc(C(=O)NCc2ccc(N3CCCCC3)cc2)cs1 | -2.759%
* COc1ccc(CC(=O)N2CCN(c3nccn3C)CC2)cc1.Cl | 5.819%
* Cc1ccc(N2CCCC(NCc3ccc4c(c3)OCCO4)C2)nn1 (stereo not shown) | -780.6%
* COCCOc1ncccc1C(=O)N1CCCCC1c1nccs1 (stereo not shown) | 4.25%
* Cc1ccsc1C(=O)N1CCC(c2nccn2Cc2ccncc2)CC1 | -3.246%
* O=C(O)C(F)(F)F.O=C(O)C(F)(F)F.[H][C@@]12CCN(Cc3ccccn3)[C@]1([H])CC[C@H](COC)O2 | -4.21%
* CC(C)c1n[nH]c(C2CN(C(=O)c3cnccn3)CCO2)n1 (stereo not shown) | -2.603%

From ChEMBL document CHEMBL3988442, “University of Dundee, Small-Polar-MMV Screening Library” (2021).